Laboratory results reported in publication PMC6834594, “Structure and regulation of ZCCHC4 in m^6A-methylation of 28S rRNA” (Nature Communications, 2019).
Results are given in words; binding and its absence hold for the method and conditions named.

Molecular target: ZCCHC4(24-464) with five surface mutations for crystallisation (K55A, E56A, E57A, K167A, K168A) (human) (UniProt Q9H5U6)
Test: crystal structure; ZCCHC4(24-464) five-alanine mutant with SAH, 3.1 Å; six complexes in one asymmetric unit; sitting drop, 12 °C, 0.03 M citric acid, 0.07 M Bis-Tris propane pH 7.6, 11-12% PEG3350; both purified

binding: no binding
B1: ZCCHC4(24-464) with five surface mutations for crystallisation (K55A, E56A, E57A, K167A, K168A) (domain or fragment, UniProt Q9H5U6 24-464)
chain: GMEVVLPLDPAVPAPLCPHGPTLLFVKVTQGAAATRRFYACSACRDRKDCNFFQWEDEKLSGARLAAREAHNRRCQPPLSRTQCVERYLKFIELPLTQRKFCQTCQQLLLPDDWGQHSEHQVLGNVSITQLRRPSQLLYPLENAATNAQYLFADRSCQFLVDLLSALGFRRVLCVGTPRLHELIKLTASGDKKSNIKSLLLDIDFRYSQFYMEDSFCHYNMFNHHFFDGKTALEVCRAFLQEDKGEGIIMVTDPPFGGLVEPLAITFKKLIAMWKEGQSQDDSHKELPIFWIFPYFFESRICQFFPSFQMLDYQVDYDNHALYKHGKTGRKQSPVRIFTNIPPNKIILPTEEGYRFCSPCQRYVSLENQHCELCNSCTSKDGRKWNHCFLCKKCVKPSWIHCSICNHCAVPDHSCEGPKHGCFICGELDHKRSTCPNIATS
